Article PMC4150794
These are yes or no findings as the source states them, for the method shown. In cells and extracts the contact can be indirect. Some entries that bind do so weakly or less than the wild type.

Protein sequences, listed by entry. Tags and fused reporters are not part of them. Lines headed by an entry give the natural chain unless they say otherwise; changes in a name come on top.
UniProt Q9W6I1: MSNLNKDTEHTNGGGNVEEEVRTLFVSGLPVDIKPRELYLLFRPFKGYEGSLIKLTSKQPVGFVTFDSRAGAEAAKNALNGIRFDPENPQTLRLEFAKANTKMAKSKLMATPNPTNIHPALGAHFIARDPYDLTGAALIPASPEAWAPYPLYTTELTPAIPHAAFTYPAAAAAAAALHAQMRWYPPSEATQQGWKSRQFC
UniProt Q6ZRY4: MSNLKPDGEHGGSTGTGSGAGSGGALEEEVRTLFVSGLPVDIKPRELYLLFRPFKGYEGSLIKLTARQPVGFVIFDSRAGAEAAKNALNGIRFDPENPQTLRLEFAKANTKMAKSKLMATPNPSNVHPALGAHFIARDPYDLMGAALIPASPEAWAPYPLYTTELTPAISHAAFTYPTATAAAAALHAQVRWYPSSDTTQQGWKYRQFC
UniProt P17081: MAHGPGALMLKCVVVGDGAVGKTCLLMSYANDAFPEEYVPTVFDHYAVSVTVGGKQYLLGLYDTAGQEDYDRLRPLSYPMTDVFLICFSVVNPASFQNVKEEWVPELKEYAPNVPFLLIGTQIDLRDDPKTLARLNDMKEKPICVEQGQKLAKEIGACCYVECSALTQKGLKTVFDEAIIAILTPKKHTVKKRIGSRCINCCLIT

Experiments:
[1] = target: Myc-RBPMS2-L40E (chick full-length RBPMS2 L40E, Myc tag, RCAS) (chick) (UniProt Q9W6I1); assay: cross-linking; 4 μg total protein extract of infected DF-1 cells, 0.1% glutaraldehyde in PBS, 4 °C, 10 or 30 s; SDS-PAGE and blot with anti-Myc or anti-GFP
[2] = target: Myc-RBPMS2 (full-length human RBPMS2, N-terminal Myc tag) in DF-1 cells (human) (UniProt Q6ZRY4); assay: proximity ligation; DuoLink in situ PLA in transfected DF-1 cells with mouse anti-HA and rabbit anti-Myc
[3] = target: Myc-RBPMS2 (full-length human RBPMS2, N-terminal Myc tag) in DF-1 cells (human) (UniProt Q6ZRY4); assay: co-IP; lysates of transfected DF-1 cells; rabbit anti-Myc on protein A-Sepharose, 4 °C, 1 h, 50 mM Tris pH 8, 150 mM NaCl, 0.4% NP40; blot with anti-HA; also after RNase A (50 μg/ml, 30 min)
[4] = target: Myc-RBPMS2 (chick full-length RBPMS2, Myc tag, RCAS) (chick) (UniProt Q9W6I1); assay: cross-linking; 4 μg total protein extract of infected DF-1 cells, 0.1% glutaraldehyde in PBS, 4 °C, 10 or 30 s; SDS-PAGE and blot with anti-Myc or anti-GFP

In the case of “Myc-RBPMS2-L40E (chick full-length RBPMS2 L40E, Myc tag, RCAS) (from UniProt Q9W6I1 1-200)”, the binding [1] was “no binding”.

For “HA-TC10 (human small GTPase TC10, HA tag) in DF-1 cells (from UniProt P17081 1-205)”, the binding [2] was “no binding” and the binding [3] was “no binding”.

In the case of “Myc-RBPMS2 (chick full-length RBPMS2, Myc tag, RCAS) (from UniProt Q9W6I1 1-200)”, the binding [4] was “binds”.
